These are yes or no findings as the source states them, for the method shown. Binding seen in cells or lysates may run through a third protein. Some results given as binding are weak or reduced against the parent protein; the word gives no strength. Where a sequence is shown, tags or fusion partners need not be part of it.
Target: T1, ORC2-GFP (Drosophila (endogenous in embryos)) (UniProt Q24168)
T1 sequence: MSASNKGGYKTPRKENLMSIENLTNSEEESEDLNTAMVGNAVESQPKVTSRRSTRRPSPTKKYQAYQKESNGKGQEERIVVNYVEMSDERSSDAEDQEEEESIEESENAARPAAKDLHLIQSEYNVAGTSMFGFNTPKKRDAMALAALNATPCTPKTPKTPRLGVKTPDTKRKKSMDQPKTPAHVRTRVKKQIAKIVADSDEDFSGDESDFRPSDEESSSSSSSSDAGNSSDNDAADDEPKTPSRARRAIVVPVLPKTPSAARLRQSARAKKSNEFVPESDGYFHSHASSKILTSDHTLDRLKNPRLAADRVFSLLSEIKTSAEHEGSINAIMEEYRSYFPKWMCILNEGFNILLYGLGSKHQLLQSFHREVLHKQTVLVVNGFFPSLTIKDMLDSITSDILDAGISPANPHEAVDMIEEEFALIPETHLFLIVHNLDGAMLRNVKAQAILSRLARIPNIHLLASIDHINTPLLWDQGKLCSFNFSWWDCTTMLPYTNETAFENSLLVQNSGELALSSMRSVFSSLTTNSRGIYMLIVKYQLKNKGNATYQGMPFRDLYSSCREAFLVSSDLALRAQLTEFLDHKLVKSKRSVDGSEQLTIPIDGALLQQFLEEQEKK
Assay: co-IP; GFP-Trap IP of ORC2-GFP from benzonase-treated Drosophila embryo extracts, western blot with anti-ORC2 and anti-Elys; repeated at multiple time points through embryogenesis

Protein sequences, listed by entry. Tags and fused reporters are not part of them.
UniProt Q9VWE6: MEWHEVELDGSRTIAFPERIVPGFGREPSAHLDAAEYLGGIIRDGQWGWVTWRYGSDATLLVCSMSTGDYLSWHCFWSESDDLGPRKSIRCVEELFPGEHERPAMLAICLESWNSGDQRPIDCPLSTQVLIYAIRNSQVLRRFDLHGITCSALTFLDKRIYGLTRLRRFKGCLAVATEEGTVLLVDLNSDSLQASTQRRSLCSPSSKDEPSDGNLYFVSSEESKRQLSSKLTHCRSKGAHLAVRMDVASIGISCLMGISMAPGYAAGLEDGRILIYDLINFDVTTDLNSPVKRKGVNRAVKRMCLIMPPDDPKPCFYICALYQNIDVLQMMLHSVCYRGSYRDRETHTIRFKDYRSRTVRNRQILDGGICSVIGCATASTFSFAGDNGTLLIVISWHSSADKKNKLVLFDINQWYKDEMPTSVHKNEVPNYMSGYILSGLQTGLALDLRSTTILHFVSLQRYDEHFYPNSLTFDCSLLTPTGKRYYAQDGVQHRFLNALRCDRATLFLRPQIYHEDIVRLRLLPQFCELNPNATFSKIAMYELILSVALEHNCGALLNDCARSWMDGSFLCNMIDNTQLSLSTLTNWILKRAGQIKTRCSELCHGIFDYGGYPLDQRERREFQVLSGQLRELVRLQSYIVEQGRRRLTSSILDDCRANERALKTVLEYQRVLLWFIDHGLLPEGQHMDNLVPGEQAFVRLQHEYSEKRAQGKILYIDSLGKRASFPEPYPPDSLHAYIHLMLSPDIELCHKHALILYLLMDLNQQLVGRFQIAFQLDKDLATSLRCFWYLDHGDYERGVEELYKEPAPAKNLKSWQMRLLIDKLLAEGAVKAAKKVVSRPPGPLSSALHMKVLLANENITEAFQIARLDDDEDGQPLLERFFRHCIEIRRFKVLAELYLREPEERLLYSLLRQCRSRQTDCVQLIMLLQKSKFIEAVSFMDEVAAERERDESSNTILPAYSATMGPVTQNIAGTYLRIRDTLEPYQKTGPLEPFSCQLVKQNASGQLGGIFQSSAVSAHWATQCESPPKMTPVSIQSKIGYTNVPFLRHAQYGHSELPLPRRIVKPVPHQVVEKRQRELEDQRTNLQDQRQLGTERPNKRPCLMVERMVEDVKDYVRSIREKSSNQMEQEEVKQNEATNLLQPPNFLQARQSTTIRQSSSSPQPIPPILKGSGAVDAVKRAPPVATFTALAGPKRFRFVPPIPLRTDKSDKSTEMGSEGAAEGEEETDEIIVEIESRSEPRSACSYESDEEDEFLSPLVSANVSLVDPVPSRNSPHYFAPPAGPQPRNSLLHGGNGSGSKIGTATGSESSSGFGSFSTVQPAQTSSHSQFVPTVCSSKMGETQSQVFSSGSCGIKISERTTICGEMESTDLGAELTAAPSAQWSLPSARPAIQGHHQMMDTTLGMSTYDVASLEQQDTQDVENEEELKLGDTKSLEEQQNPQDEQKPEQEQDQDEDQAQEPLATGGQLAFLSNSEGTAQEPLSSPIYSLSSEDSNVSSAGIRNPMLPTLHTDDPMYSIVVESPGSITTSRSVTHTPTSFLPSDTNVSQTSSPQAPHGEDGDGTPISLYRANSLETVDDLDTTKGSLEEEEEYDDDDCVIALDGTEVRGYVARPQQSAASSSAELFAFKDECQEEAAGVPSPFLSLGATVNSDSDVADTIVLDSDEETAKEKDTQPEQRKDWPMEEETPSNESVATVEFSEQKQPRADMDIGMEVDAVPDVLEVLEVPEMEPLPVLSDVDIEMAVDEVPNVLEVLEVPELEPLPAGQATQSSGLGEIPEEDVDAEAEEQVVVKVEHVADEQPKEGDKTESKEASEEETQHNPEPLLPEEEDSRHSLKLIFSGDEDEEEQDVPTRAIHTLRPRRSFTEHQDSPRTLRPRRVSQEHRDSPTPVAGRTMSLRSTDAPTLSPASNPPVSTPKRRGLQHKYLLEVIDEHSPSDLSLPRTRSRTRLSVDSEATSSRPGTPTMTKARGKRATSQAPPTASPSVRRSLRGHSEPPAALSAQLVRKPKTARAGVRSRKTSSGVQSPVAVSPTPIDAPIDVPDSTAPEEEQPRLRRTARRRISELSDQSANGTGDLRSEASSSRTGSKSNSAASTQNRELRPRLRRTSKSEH

Elys (from UniProt Q9VWE6 1-2111)
binding: binds

Source: article PMC10040217
